Measurements as given in the supplement of paper PMC10735217.
Counter-ions that a name gives are not always drawn. The list shows a part of the results. This data set is noisy: repeats of one test often differ as much as different tests do.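 Human kidney-derived cells stably carry a construct in which eight TEAD-binding elements drive luciferase, measured by luminescence in a drug-repurposing library screen. A hit is any compound whose signal exceeds the plate mean by more than five robust Z scores.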

Tested on: HEK293A TEAD-LUC reporter
Test: TEAD-luciferase reporter activity (YAP activation), robust Z score vs plate; higher = stronger YAP/TEAD activation
Conditions: 24 h

SMILES | TEAD-luciferase reporter activity (compound concentration: 200 nM) | TEAD-luciferase reporter activity (compound concentration: 2 uM) | TEAD-luciferase reporter activity (compound concentration: 10 uM)
CN1C(=O)CN=C(c2ccc(Cl)cc2)c2cc(Cl)ccc21 [Chlordiazepam] | inactive: -0.925 | inactive: 1.18 | inactive: -2.22
C=CCC1(C(C)CCC)C(=O)N=C(O)NC1=O (centres undefined) [Secobarbital] | inactive: -1.57 | inactive: -1.58 | inactive: -0.0472
CN1CCc2cc3c(cc2C1O)OCO3 (centres undefined) | inactive: -1.22 |  | inactive: 0.173
C=C1[C@@H](C)[C@H]2[C@H](Cc3ccccc3)NC(=O)[C@]23OC(=O)/C=C/[C@H](O)CCC[C@@H](C)C/C=C/[C@H]3[C@@H]1O | inactive: -1.39 |  | inactive: -1.87
C=C1[C@@H](C)[C@H]2[C@H](Cc3ccccc3)NC(=O)[C@]23OC(=O)/C=C/[C@H](O)CCC[C@@H](C)C/C=C/[C@H]3[C@@H]1O [Cytochalasin B] |  | inactive: 1.31 | 
CCCC(C)C1(CC)C(=O)N=C([S-])NC1=O (centres undefined) [Thiopental sodium] | inactive: 0.14 | inactive: -0.392 | inactive: -0.254
CC[N+]1(C)[C@@H]2C[C@@H](OC(=O)[C@H](CO)c3ccccc3)C[C@H]1[C@@H]1O[C@@H]12 (some centres undefined) | inactive: -0.509 | inactive: -0.0468 | inactive: 0.681
O=[Se]([O-])[O-] [Selenite sodium] | inactive: -0.155 |  | inactive: -0.668
O=C1CCC[C@@H]2[C@H]3CCCN4CCC[C@@H](CN12)[C@@H]34 [Sophocardipine] | inactive: 0.327 | inactive: -2.1 | inactive: -2.14
Oc1ccc2c3c1O[C@H]1c4ncc(-c5ccc(Cl)cc5)cc4C[C@@]4(O)C(C2)N(CC2CC2)CCC314 (some centres undefined) | inactive: -1.21 | inactive: -1.25 | inactive: 0.181
CCc1cccc(CC)c1-n1c(=O)[nH]c2ccccc2c1=O | inactive: 0.285 | inactive: 0.065 | inactive: 1.42
Oc1ccc(CCN2CCC(Nc3nc4ccccc4n3Cc3ccc(F)cc3)CC2)cc1 | active: 9.94 | inactive: -0.373 | inactive: -0.565
CCC1(c2ccc(N)cc2)CCC(=O)NC1=O (centres undefined) [aminoglutethimide] |  | inactive: -0.364 | 
CCC1(c2ccc(N)cc2)CCC(=O)NC1=O (centres undefined) [Aminoglutethimide] | inactive: 4.02 |  | inactive: -0.573
CCN(CC)C(=O)C1(c2ccccc2)CCNCC1 | inactive: 0.0301 | inactive: -0.176 | inactive: 0.957
Cc1nnc2n1-c1ccc(Cl)cc1C(c1ccccc1)=NC2 | inactive: -3 |  | inactive: -1.97
CC(Cc1ccccc1)NCCn1cnc2c1c(=O)n(C)c(=O)n2C (centres undefined) | inactive: -0.354 | inactive: 0.373 | inactive: -0.603
CC1(C)C(C=C(Cl)Cl)C1C(=O)OC(C#N)c1ccc(F)c(Oc2ccccc2)c1 (centres undefined) | inactive: -0.838 | inactive: -0.267 | inactive: -0.000586
CN1CCC2=C(C1)C(c1ccccc1)c1ccccc12 (centres undefined) | inactive: 4.89 | inactive: 0.644 | inactive: 2.23
NC1=NCC(c2ccc(C(F)(F)F)cc2)O1 (centres undefined) | inactive: -0.83 | inactive: -0.779 | inactive: -1.11
Cc1cc(C(C#N)c2ccc(Cl)cc2)c(Cl)cc1NC(=O)c1cc(I)cc(I)c1O (centres undefined) | inactive: -1.29 | inactive: -1.18 | inactive: -0.202
COc1cc([C@@H]2c3cc4c(cc3[C@@H](NC(=O)CNCCCNCCCCNCCCN)[C@H]3COC(=O)[C@H]23)OCO4)cc(OC)c1O | inactive: -0.853 | inactive: -0.697 | inactive: -1.13
C[N+]1(CCC(C(N)=O)(c2ccccc2)c2ccccc2)CCCCCC1 | inactive: 0.0104 | inactive: -0.958 | inactive: 4.2
CCN(CC)Cc1nccn1-c1ccc([N+](=O)[O-])cc1C(=O)c1ccccc1Cl [nizofe] | inactive: -0.234 | inactive: 0.855 | inactive: -0.713
C#C[C@]1(O)CC[C@H]2[C@@H]3CCC4=CC(=O)CC[C@]4(C)[C@H]3CC[C@@]21C [Ethisterone] | inactive: -1.42 |  | inactive: 1.11
C#C[C@]1(O)CC[C@H]2[C@@H]3CCC4=CC(=O)CC[C@]4(C)[C@H]3CC[C@@]21C |  | inactive: -0.0405 | 
Cc1sc2c(c1C)C(c1ccc(Cl)cc1)=N[C@@H](CC(O)=NCCCN1CCN(C)CC1)c1nnc(C)n1-2 | active: 23.9 |  | active: 15.7

Reprinted from the entries so far for reference:
SMILES | TEAD-luciferase reporter activity (compound concentration: 200 nM) | TEAD-luciferase reporter activity (compound concentration: 2 uM) | TEAD-luciferase reporter activity (compound concentration: 10 uM)
CN1CCc2cc3c(cc2C1O)OCO3 (centres undefined) | inactive: -1.22 |  | inactive: 0.173
C=C1[C@@H](C)[C@H]2[C@H](Cc3ccccc3)NC(=O)[C@]23OC(=O)/C=C/[C@H](O)CCC[C@@H](C)C/C=C/[C@H]3[C@@H]1O | inactive: -1.39 |  | inactive: -1.87

Additional results follow:

SMILES | TEAD-luciferase reporter activity (compound concentration: 200 nM) | TEAD-luciferase reporter activity (compound concentration: 2 uM) | TEAD-luciferase reporter activity (compound concentration: 10 uM)
CN1CCc2cc(Cl)c(O)cc2[C@H]2c3ccccc3CC[C@@H]21 [ecopipam] | inactive: 0.841 | inactive: -0.66 | inactive: -1.45
CNc1ccc2oc(C[C@H]3O[C@@]4(CC[C@H]3C)O[C@H]([C@H](C)C(=O)c3ccc[nH]3)[C@H](C)C[C@H]4C)nc2c1C(=O)O [Calcimycin] | inactive: 0.778 | inactive: -0.0275 | inactive: -0.917
Cl[C@H]1[C@H](Cl)[C@@H](Cl)[C@@H](Cl)[C@H](Cl)[C@H]1Cl | inactive: -1.81 | inactive: 0.159 | inactive: -0.753
O=c1[nH]c2cc(Cl)ccc2n1C1CCN(CCCC(c2ccc(F)cc2)c2ccc(F)cc2)CC1 | inactive: -0.564 | inactive: 0.333 | inactive: 0.0989
CC[C@@H]1/C=C/C=C/C[C@H](C)[C@@H](O)[C@](C)(O)C(=O)[C@H](C)[C@@H](O)[C@H](C)C(=O)[C@H](C)[C@@H](O)[C@H](C)/C=C/C(=O)O[C@H]2[C@@H](C)[C@@H](CC1)O[C@@]1(CC[C@@H](C)[C@@H](C[C@H](C)O)O1)[C@@H]2C | inactive: -2.86 | inactive: -1.99 | inactive: 0.995
FC(F)(F)c1cccc(C2=CCN(CCc3ccc4ccccc4c3)CC2)c1 [Xaliproden hydrochloride] | inactive: -2.86 | inactive: -0.67 | inactive: 2.51
CCN(CC)C(=O)c1ccc([C@H](c2cccc(N)c2)N2CCN(Cc3ccc(F)cc3)CC2)cc1 | inactive: -0.542 |  | inactive: 0.916
CCC(CO)(C(=O)OC1CC2CCC(C1)[N+]2(C)C)c1ccccc1 (centres undefined) [Troventol] | inactive: 0.625 | inactive: 0.0818 | inactive: -1.52
CC(C)C[C@H](NC(=O)[C@H](CO)NC(=O)[C@@H](N)Cc1ccc(O)cc1)C(=O)O | inactive: -0.905 | inactive: -1.1 | inactive: 0.298
NC(=O)OC(Cn1ncnn1)c1ccccc1Cl (centres undefined) | inactive: -0.956 | inactive: -0.121 | inactive: -0.304
CCN[C@H](C)Cc1cccc(C(F)(F)F)c1 [Levofenfluramine] | inactive: -2.65 | inactive: 1.46 | inactive: -0.281
CCCCCCC(C)(C)c1cc(OC)c([C@H]2C=C(CO)[C@H]3C[C@@H]2C3(C)C)c(OC)c1 | inactive: -1.25 |  | inactive: 0.037
C=CC[C@]1(O)CC[C@H]2[C@@H]3CCC4=CC(=O)CCC4=C3C=C[C@@]21C [Altrenogest] | inactive: 0.296 | inactive: -0.85 | inactive: -0.178
COc1cc2cc(c1Cl)N(C)C(=O)C[C@H](OC(=O)C(C)C)[C@]1(C)O[C@H]1[C@H](C)[C@@H]1C[C@@](O)(NC(=O)O1)[C@H](OC)/C=C/C=C(\C)C2 [Ansamitocin P3] | active: 6.17 | inactive: 2.5 | active: 6.04
CN(C)CCc1cc2ccccc2[nH]1 | inactive: 2.87 | inactive: 0.497 | inactive: 0.845
CCC(C(N)=O)N1CC(C=C(F)F)CC1=O (centres undefined) | inactive: -1.08 | inactive: 2.01 | inactive: -0.686
CN1C(=O)CC(=O)N(c2ccccc2)c2cc(C(F)(F)F)ccc21 [Triflubazam] | inactive: -2.51 | inactive: -0.957 | inactive: 0.421
N=C(N)c1ccc(-c2csc(N(CCC(=O)O)C3CCN(CC(=O)O)CC3)n2)cc1 | inactive: -0.974 | inactive: -0.477 | inactive: 0.303
N[C@@H](Cc1ccc(O)cc1)C(=O)NCC(=O)NCC(=O)O | inactive: -0.883 | inactive: -1.66 | inactive: 0.813
CC(CC(N)CC(=O)O)CC(C)(C)C (centres undefined) | inactive: 0.691 | inactive: 0.918 | inactive: -0.372
CCC[N+]1(C)C2CCC1CC(OC1c3ccccc3CSc3ccccc31)C2 (centres undefined) [tipetropium] | inactive: -1.42 | inactive: 1.46 | inactive: 0.12
CC(C)CC(N(C)C)C1(c2ccc(Cl)cc2)CCC1 (centres undefined) |  | inactive: -0.173 | 
CC(C)CC(N(C)C)C1(c2ccc(Cl)cc2)CCC1 (centres undefined) [Sibutramine hydrochloride] | inactive: 3.47 |  | inactive: -0.489
NCC(O)c1cccc(O)c1 (centres undefined) | inactive: 1.81 | inactive: 0.458 | inactive: 2.81
O=P(NCCCl)(NCCCl)O[C@@H]1O[C@H](CO)[C@@H](O)[C@H](O)[C@H]1O | inactive: 1.96 | inactive: 0.0686 | inactive: -0.177
CC(=O)N1N=C(c2ccc(N)cc2)c2cc3c(cc2C[C@H]1C)OCO3 [talampanel] | inactive: 1.88 | inactive: 4.15 | inactive: -1.7
CC(C)[C@]12O[C@H]1[C@@H]1O[C@]13[C@]1(O[C@H]1C[C@H]1C4=C(CC[C@@]13C)C(=O)OC4)[C@@H]2OCOP(=O)([O-])[O-] [Minnelide] | inactive: -0.43 | inactive: -2.45 | inactive: -2.2
